PubChem BioAssay AID2685 (National Center for Advancing Translational Sciences (NCATS), 2010)
The list shows a part of the results. Further columns of the screen follow, without active or inactive calls. Compounds called inactive in the main read-out are mostly missing here. The note in brackets gives the kind of curve behind each potency; many fits are weak.

Assay: qHTS Assay for Lipid Storage Modulators in Drosophila S3 Cells;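 for cell number change: cells counted by Cell Tracker Red CMTPX staining in the red channel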
Conditions: BODIPY lipid droplet fluorescence, 18-24 h; for cell number change: measured here: cell count max response, cells fed with added oleic acid
Method in brief: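 Laser-scanning cytometry quantifies lipid droplet accumulation (500–530 nm total intensity; droplet/cell object ratio) in oleic acid-fed (400 uM added) Drosophila S3 cells treated with a concentration series. 20 uM Triacsin C defined 100% inhibition.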

[1] = measured here: cell number channel AC50, cells fed with added oleic acid
[2] = measured here: lipid fluorescence (Fed channel) AC50, cells fed with added oleic acid

| Structure (SMILES) | AC50 [1] | cell number change | AC50 [2] |
| --- | --- | --- | --- |
| COP(=O)(OC)c1nc(-c2cccc3ccccc23)oc1NCCc1ccccc1 | 32.6 µM [falling, single point] | – | – |
| O=C1NC(=O)C(=Cc2ccc(Sc3ccccc3)o2)C(=O)N1 | 32.6 µM [falling, single point] | -58.9% | 29.1 µM [falling, single point] |
| Clc1ccc(C2N3CCCN23)c(Cl)c1 (stereo unspecified) | – | 27.8% | 0.259 µM [rising, full curve] |
| COC(=O)Nc1ccc(N=C(N)N[N+](=O)[O-])cc1 | 6.51 µM [falling, single point] | -8.41% | – |
| O=C(NCc1ccc(C(=O)N2CCC3(CC2)OCCO3)cc1)c1cccc(Br)c1 | – | 10.6% | 4.11 µM [rising, full curve, poor fit] |
| COc1ccccc1OC(=O)c1ccc(C)c(S(=O)(=O)N2CCOCC2)c1 | – | 17.9% | 0.58 µM [rising, single point] |
| OC(CN1CCCCC1)c1c[nH]c2ccccc12 (stereo unspecified) | 0.206 µM [falling, full curve, poor fit] | -6.31% | – |
| O=C(Nc1ccc(F)c([N+](=O)[O-])c1)N1C[C@H]2C[C@@H](C1)c1cccc(=O)n1C2 | – | -15.9% | – |
| COC(=O)NC(=C(Cl)Cl)P(=O)(c1ccccc1)c1ccccc1 | – | -14.7% | 0.651 µM [falling, full curve] |
| Cc1ccc(C)c(NC(=S)NCCc2cnc[nH]2)c1 | – | 24.4% | 18.4 µM [rising, single point] |
| COC(=O)C1=C(c2ccc(F)cc2F)C[C@@H]2CC[C@H]1N2C(=O)NCCOc1ccc(OC)cc1 | 32.6 µM [falling, single point] | -39.5% | 29.1 µM [falling, single point] |
| O=C1NC(=O)C(=Cc2ccc(-c3ccc(Cl)cc3)o2)C(=O)N1 | 0.00651 µM [falling, full curve, poor fit] | -34.4% | – |
| C=CCn1c(O)c(C(C)=Nc2cccc(C(=O)O)c2)c(=O)[nH]c1=O | 32.6 µM [falling, single point] | -30.4% | 23.1 µM [falling, single point] |
| O=c1oc2ccccc2n1Cc1cccc(Cl)c1 | 29.1 µM [falling, single point] | – | – |
| O=C(c1ccc(F)cc1Cl)N1CCC2(CC1)OCCO2 | – | 13.5% | 18.4 µM [rising, single point] |
| COc1cc(Cn2c(N)c(C(=O)NCc3ccco3)c3nc4ccccc4nc32)cc(OC)c1OC | – | -33.2% | – |
| COC(=O)C1=C(c2cccc(C#N)c2)C[C@@H]2CC[C@H]1N2C(=O)NCCCOC(C)C | – | 15.3% | 23.1 µM [rising, single point] |
| CC(Cc1ccccc1Sc1ccccc1O)N(C)C (stereo unspecified) | 16.4 µM [falling, single point] | -72.6% | – |
| CN(C)C(=O)Nc1cccc(OC(=O)N(C)C)c1 | – | – | 0.651 µM [falling, single point] |
| CC/C(=N\N1CCCCC1)c1c(O)[nH]c(=O)[nH]c1=O | – | -45.2% | 4.61 µM [falling, partial curve] |

Nothing new here: three of the compounds above.

| Structure (SMILES) | AC50 [1] | cell number change | AC50 [2] |
| --- | --- | --- | --- |
| Cc1ccc(C)c(NC(=S)NCCc2cnc[nH]2)c1 | – | 24.4% | 18.4 µM [rising, single point] |
| COC(=O)C1=C(c2ccc(F)cc2F)C[C@@H]2CC[C@H]1N2C(=O)NCCOc1ccc(OC)cc1 | 32.6 µM [falling, single point] | -39.5% | 29.1 µM [falling, single point] |
| O=C1NC(=O)C(=Cc2ccc(-c3ccc(Cl)cc3)o2)C(=O)N1 | 0.00651 µM [falling, full curve, poor fit] | -34.4% | – |

Additional structures.

| Structure (SMILES) | AC50 [1] | cell number change | AC50 [2] |
| --- | --- | --- | --- |
| COc1nc(NC(C)C)nc(NC(C)C)n1 | 32.6 µM [rising, single point] | 52.2% | 18.4 µM [rising, partial curve] |
| CCCC(=O)NC(Oc1ccc(C(C)=O)cc1)C(Cl)(Cl)Cl (stereo unspecified) | 0.116 µM [falling, full curve, poor fit] | -24.5% | 0.651 µM [falling, full curve] |
| Nc1cc(N2CCNCC2)c([N+](=O)[O-])cc1Cl | 0.00517 µM [falling, full curve, poor fit] | -22% | – |
| COc1ccccc1CC(=O)N1CCN(CCc2ccccc2)CC1 | – | -3.3% | 1.3 µM [rising, full curve] |
| Cc1cccc(NC(=O)C(C)N2CC=C(c3ccccc3)CC2)c1 (stereo unspecified) | – | – | 29.1 µM [rising, single point] |
| COc1ccc(CCNCc2ccsc2)cc1OC | – | 4.76% | 0.461 µM [falling, single point] |
| CCCn1ncc(C(=O)O)c1C | – | -8.97% | 29.1 µM [falling, single point] |
| C[N+]1(C)[C@@H]2CC[C@H]1CC(OC(=O)[C@@H](CO)c1ccccc1)C2 (stereo partly specified) | – | 19.8% | – |
| CC(C)CNP(=S)(c1ccccc1)C(C)(C)C (stereo unspecified) | 1.64 µM [falling, partial curve, poor fit] | -12.1% | – |
| C=CCN1CCc2cccc3c2[C@H]1Cc1ccc(O)c(O)c1-3 | – | 1.35% | – |
| CC(c1ccccc1)[n+]1ccccc1 (stereo unspecified) | 6.51 µM [falling, single point] | 3.3% | – |
| O=C1NC(=O)C(=Cc2ccc(-c3ccccc3[N+](=O)[O-])o2)C(=O)N1 | 29.1 µM [falling, single point] | -43.1% | 5.17 µM [falling, partial curve] |
| CC(C)(C)OC(=O)c1c(N)n(Cc2ccco2)c2nc3ccccc3nc12 | 0.517 µM [rising, full curve] | 19.2% | 0.164 µM [rising, full curve, poor fit] |
| c1ccc2nc(OCCN3CC3)ccc2c1 | 2.59 µM [rising, full curve, poor fit] | 23% | – |
| O=P(OCC(F)(F)C(F)F)(N1CCCCC1)N1CCCCC1 | – | -27.8% | 18.4 µM [falling, partial curve] |
| CC(=O)Nc1nc(CCl)cs1 | 0.0164 µM [rising, full curve, poor fit] | – | 0.0103 µM [rising, full curve, poor fit] |
| CCOc1ccc(C(Nc2ccc(C)cc2)P2(=O)OCCCO2)cc1 (stereo unspecified) | 0.651 µM [falling, full curve, poor fit] | – | – |
| COC(=O)C1=C(c2ccc(F)cc2F)C[C@@H]2CC[C@H]1N2C(=O)NCCOc1ccccc1 | – | -3.01% | 0.092 µM [rising, full curve, poor fit] |
| Cc1cc(OC(=O)N(C)C)nc(-c2ccc(C)c(Cl)c2)n1 | – | 13.7% | 10.3 µM [rising, partial curve, poor fit] |
| CCS(=O)(=O)Nc1cccc(C(=C2CCCCC2)c2cnc[nH]2)c1 | 0.146 µM [rising, full curve, poor fit] | 29.4% | 0.517 µM [rising, full curve] |

| Structure (SMILES) | AC50 [1] | cell number change | AC50 [2] |
| --- | --- | --- | --- |
| Cc1cc(C)cc(N2C(=O)NC(=O)/C(=C\c3cccn3-c3ccc(Cl)cc3)C2=O)c1 | 6.51 µM [falling, full curve] | -41% | – |
| Cc1cc(-c2ccccc2)cc(C)[n+]1Cc1ccccc1 | – | -27.2% | 16.4 µM [rising, single point] |
| COC(=O)C1=C(c2ccc(OCc3ccccc3)cc2)C[C@@H]2CC[C@H]1N2C(=O)NCc1ccc(OC)c(OC)c1 | 3.66 µM [falling, single point] | -26.3% | 23.1 µM [falling, single point] |
| Clc1ccc2c(N3CCNCC3)ccnc2c1 | – | 6.92% | 16.4 µM [falling, partial curve] |
| CN(C)C1(CNC(=O)Nc2ccc(Cl)c(Cl)c2)CCCCC1 | – | 9.21% | 5.62 µM [rising, single point] |
| CC(C)CCNC(=O)c1c(N)n(CC2CCCO2)c2nc3ccccc3nc12 (stereo unspecified) | – | -21.2% | 1.46 µM [rising, partial curve] |
| COc1ccc(Cn2c(N)c(C(=O)NCc3ccco3)c3nc4ccccc4nc32)cc1 | 16.4 µM [falling, partial curve, poor fit] | -32% | – |
| O=c1[nH]c(=S)n(C2CC2)c(O)c1/C=N/N1CCOCC1 | – | -25.4% | 0.291 µM [falling, full curve] |
| Cc1ccccc1N | – | 3.39% | 0.116 µM [rising, single point] |
| COc1ccccc1NC1=NCCS1 | – | – | 18.4 µM [falling, single point] |
| CC(C)(C)N1Cc2ccccc2C1=N | – | -7.96% | – |
| COc1ccc(C(C)=O)cc1CN1CC=C(c2ccccc2)CC1 | – | 2.1% | 6.51 µM [rising, single point] |
| O=P(O)(O)Cc1c(Cl)cccc1Cl | 6.51 µM [falling, single point] | -14.5% | 1.3 µM [falling, full curve, poor fit] |
| O=C1CC(=O)N(c2ccc(Cl)cc2Cl)C(=O)N1 | – | -5.55% | 2.31 µM [falling, full curve] |
| O=C(O)CCCc1ccc(N(CCCl)CCCl)cc1 | 2.06 µM [falling, single point] | 0.0039% | 3.26 µM [falling, partial curve] |
| O=[N+]([O-])c1ccc(N2CCNCC2)cc1NCc1ccco1 | 14.6 µM [falling, partial curve, poor fit] | -37.1% | 29.1 µM [falling, single point] |
| CC(C)N1C(=O)CC2(CC[N+](C)(CCOC(=O)C(O)(c3ccccc3)c3ccccc3)CC2)C1=O (stereo unspecified) | 0.058 µM [falling, full curve, poor fit] | -22.1% | – |
| COP(=O)(CC(=O)O)c1ccccc1 (stereo unspecified) | 20.6 µM [falling, partial curve, poor fit] | -61.6% | 29.1 µM [falling, single point] |
| Nc1c(C(=O)NCCCc2ccccc2)c2nc3ccccc3nc2n1Cc1cccs1 | 23.1 µM [falling, single point] | -79.8% | 1.46 µM [rising, partial curve] |
